From PubChem BioAssay AID1347075 (National Center for Advancing Translational Sciences (NCATS), 2019)
Among all 400,000 compounds or so, about 5,500 (1.4%) were called active. The inconclusive results got no clear call from the source; some entries with a clear call stand among them for comparison. Calls come from the whole dose curve; as a rule, active = well fitted cell-killing curve with a large enough effect; inconclusive = small, poorly fitted or top-dose-only effect, or effect the other way; inactive = flat fitted curve, though single readings scatter. Where the call is inconclusive, the potency comes from a doubtful curve fit.

assay: qHTS assay for MDR1-selective chemotherapeutics: Primary screen using the parental adenocarcinoma cell KB-3-1; settings: KB-3-1 viability, CellTiter-Glo ATP luminescence, 72 h; activity change, negative = cytotoxic: at 46.1 µM (top of the series); note: nearly all actives have a fitted effect of over 60% in size
Outline: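 Cytotoxicity measured as CellTiter-Glo luminescence after 72 h at 37 C. Compound titrations were pinned onto drug-naive KB-3-1 parental adenocarcinoma cells grown in DMEM with 10% FBS, and normalized data fitted to concentration-response curves.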
% is set by controls: 0 for no effect and ±100 for the full control effect; potency is the fitted concentration of half-maximal effect.

| SMILES | Potency | activity change, negative = cytotoxic |
| --- | --- | --- |
| Cc1nc2ccccc2c2oc(C(=O)Nc3ccc4c(c3)OCCO4)cc12 | inconclusive: 29.1 µM [cytotoxic, single point] |  |
| O=C(Nc1ccc(Br)cc1)c1cc(-c2ccc3c(c2)OCO3)on1 | inconclusive: 23.1 µM [cytotoxic, single point] |  |
| COc1ccc(NS(=O)(=O)c2ccc(N3CCOCC3)c(N)c2)cc1 | inconclusive: 4.61 µM [cytotoxic, full curve] |  |
| COc1ccc(C(O)c2nc(-c3cc4ccccc4o3)cs2)cc1 (stereo not drawn) | inconclusive: 23.1 µM [cytotoxic, single point] |  |
| COc1ccc(Nc2nc(-c3ccccc3)nc3ccccc23)cc1S(=O)(=O)N1CCOCC1 | inconclusive: 20.6 µM [cytotoxic, single point] |  |
| Cc1onc(-c2ccccc2Cl)c1C(=O)N/N=C(\N)COc1ccc(Cl)cc1 | inconclusive: 29.1 µM [cytotoxic, single point] |  |
| Cc1ccc(OC(C)C(=O)Nc2ccncc2)cc1C (stereo not drawn) | inconclusive: 13 µM [cytotoxic, partial curve] |  |
| CC(Nc1ccc(F)cc1)=[N+](C)CCNS(=O)(=O)c1ccc(Cl)cc1 |  | inconclusive: -65.7% |
| O=C(CNC(=S)N(Cc1ccc(F)cc1)C1CCCCC1)NCC1CCCO1 (stereo not drawn) |  | inactive: 18.8% |
| O=C(CSc1cccc2cccc(Cl)c12)NCc1cccs1 | inconclusive: 29.1 µM [cytotoxic, single point] |  |
| CCCCCc1cc(=O)oc2c(C(CCN(CC)CC)c3ccc(OC)cc3)c(OC)cc(OC)c12 (stereo not drawn) | inconclusive: 29.1 µM [cytotoxic, single point] |  |
| Cc1ccc(NC(=O)CCc2nnc3ccc(N4CCC(C)CC4)nn23)nc1 | inconclusive: 7.31 µM [rising, partial curve, poor fit] |  |
| Cc1c(C(=O)N(Cc2ccc(Cl)cc2)C2CCS(=O)(=O)C2)oc2ccccc12 (stereo not drawn) | inconclusive: 29.1 µM [cytotoxic, single point] |  |
| O=C(Nc1cccc(C(=O)N2CCN(c3ccc(F)cc3)CC2)c1)c1ccccc1 |  | inconclusive: -32.1% [cytotoxic] |
| C=C(C)CC(c1ccccc1)N(C(C)=O)c1ccco1 (stereo not drawn) |  | inconclusive: -38.8% |
| CN1C(C(=O)Nc2cccc(O)c2)=CC(c2cccs2)=NS1(=O)=O | inconclusive: 29.1 µM [cytotoxic, single point] |  |
| O=C(CSc1nc(-c2ccccc2)nn1C(=O)c1ccccc1)Nc1cccc([N+](=O)[O-])c1 | inconclusive: 9.2 µM [rising, partial curve, poor fit] |  |
| COc1cccc(C2=CC(c3cc(OC)ccc3OC)n3nnnc3N2)c1 (stereo not drawn) | active: 6.51 µM |  |
| O=C(NC(=S)Nc1ccc2nc[nH]c2c1)c1ccccc1 | inconclusive: 29.1 µM [cytotoxic, single point] |  |
| COc1ccc2[nH]c3c(c2c1)CCNC3C1CC=C(C)CC1 (stereo not drawn) | active: 20.6 µM |  |
| CN(C(=S)Nc1ccccc1F)C1(c2ccccc2Cl)CCCCC1=O (stereo not drawn) |  | inactive: 1.15% |
| CCCCc1cc2c(s1)CCCC/C2=N/O | inconclusive: 20.6 µM [cytotoxic, single point] |  |
| O=C(Nc1ccc(Cc2ccncc2)cc1)c1ccc([N+](=O)[O-])o1 | inconclusive: 8.2 µM [cytotoxic, partial curve] |  |

| SMILES | Potency | activity change, negative = cytotoxic |
| --- | --- | --- |
| Cc1ccc(C)c(NC(=S)NNC(=O)c2csc3c2CCC(C)C3)c1 (stereo not drawn) | inconclusive: 23.1 µM [cytotoxic, partial curve, poor fit] |  |
| CCCN1CCC(C(=O)NC(c2ccc(Cl)cc2)c2ccsc2)CC1 (stereo not drawn) | inconclusive: 29.1 µM [cytotoxic, single point] |  |
| O=C(NCc1cccs1)C1CC(c2ccc(Cl)cc2)=NO1 (stereo not drawn) | inconclusive: 20.6 µM [cytotoxic, single point] |  |
| CCCCc1c(-c2ccccc2OC)ncn1CCc1ccccc1OC | inconclusive: 18.4 µM [cytotoxic, single point] |  |
| O=C(CSc1nncs1)Nc1ccc(N2CCCCC2)cc1 | inconclusive: 29.1 µM [cytotoxic, single point] |  |
| CCN(CC)CCN1C(=O)c2cccc3cc(N)cc(c23)C1=O | inconclusive: 0.411 µM [cytotoxic, full curve, poor fit] |  |
| CCOc1ccc(-c2c[n+]3c(n2-c2ccccc2)CCCCC3)cc1 | active: 5.8 µM |  |
| CCN(CC)CC(=O)Nc1ccc(-c2nc3cc(NC(=O)CN(CC)CC)ccc3o2)cc1 | inconclusive: 20.6 µM [cytotoxic, single point] |  |
| CC(=O)OCCCNc1cc(Sc2ccc(C)cc2)c2nonc2c1[N+](=O)[O-] |  | inconclusive: 0% |
| O=C(c1ccc(N2C(=O)CCC2=O)cc1)N1CCCSC1=Nc1ccccc1 |  | inconclusive: 0.149% |
| CCOC(=O)N/N=C/c1c(C)nn(-c2cccc(C(F)(F)F)c2)c1Cl | active: 2.06 µM |  |
| CC(=O)Nc1ccc(S(=O)(=O)NC2(C(F)(F)F)C(=O)Nc3c2c(=O)[nH]c(=O)n3-c2cccc(Cl)c2)cc1 (stereo not drawn) | inconclusive: 25.9 µM [rising, single point] |  |
| O=C(CSc1nnc(Cn2cnc3ccccc32)o1)c1ccccc1 | inconclusive: 20.6 µM [cytotoxic, single point] |  |
| COc1ccccc1N1CCN(CCCOc2ccc(F)cc2)CC1 |  | inactive: 4.54% |
| COc1cc(OC)cc(C(=O)NC(=S)NNC(=O)c2cnccn2)c1 | inconclusive: 3.26 µM [cytotoxic, full curve] |  |
| CC(C)C(NC(=O)CCNC(=O)c1ccc(C(C)(C)C)cc1)c1nc2ccccc2[nH]1 (stereo not drawn) | inconclusive: 25.9 µM [cytotoxic, single point] |  |
| COc1ccc(OC)c(NC(=O)c2ccc(CN3CCc4ccccc4C3)cc2)c1 |  | inactive: 9.29% |
| CCOC(=O)C1=C(C)NC2=C(C1c1ccc([N+](=O)[O-])cc1)S(=O)(=O)c1ccccc12 (stereo not drawn) | inconclusive: 29.1 µM [cytotoxic, single point] |  |
| Cc1ccc(S(=O)(=O)N2CCCCC2)cc1C(=O)N(CCc1ccccc1)Cc1ccccc1 | inconclusive: 29.1 µM [cytotoxic, single point] |  |
| COC(=O)c1ccc(NC(=O)c2cccc(OC)c2)cc1 | inconclusive: 23.1 µM [cytotoxic, single point] |  |
| Cc1ccccc1-c1cccc([C@@H]2C[C@H]3C(CN2)CON3C)c1 (stereo partly drawn) |  | inactive: -6.44% |
| CC1Cc2ccccc2N1Cc1nc2cc(Cl)ccc2c(=O)[nH]1 (stereo not drawn) | inconclusive: 29.1 µM [cytotoxic, single point] |  |
| CC(=O)N1c2ccccc2Sc2ccccc21 | inconclusive: 0.0517 µM [rising, full curve] |  |

| SMILES | Potency | activity change, negative = cytotoxic |
| --- | --- | --- |
| CCC1Sc2ccc(S(=O)(=O)Nc3ccc(OC)c(OC)c3)cc2NC1=O (stereo not drawn) | inconclusive: 18.4 µM [cytotoxic, single point] |  |
| Cc1cc(OCC(=O)Nc2ccncc2)cc(C)c1Cl | inconclusive: 16.4 µM [cytotoxic, single point] |  |
| CC(C)Oc1ccccc1-c1nc(SCC(=O)c2ccc(F)cc2)n[nH]1 |  | inactive: -6.78% |
| CC(C)NC(=O)[C@H](CSCc1ccccc1)N1Cc2ccccc2C1=O | inconclusive: 0.0146 µM [rising, full curve] |  |
| COc1ccc([N+](=O)[O-])cc1NC(=S)NC(NC(=O)C(c1ccccc1)c1ccccc1)C(Cl)(Cl)Cl (stereo not drawn) | inconclusive: 29.1 µM [cytotoxic, single point] |  |
| Cc1cc(Cl)ccc1N=c1ssnc1Cl | inconclusive: 23.1 µM [cytotoxic, single point] |  |
| O=C(CSc1nnc2n1CCCN2)c1ccc([N+](=O)[O-])cc1 |  | inconclusive: 6.69% |
| O=C(CN1C(=O)C2(SCC(=O)N2c2cccc(Cl)c2)c2ccccc21)NCCc1ccccc1 (stereo not drawn) | active: 14.6 µM |  |
| CCN(CC)S(=O)(=O)c1ccc(NC(=O)CN(c2ccccc2)S(=O)(=O)N(C)C)cc1 |  | inactive: 3.02% |
| COc1ccc(OC)c(/C=C2\NC(=O)NC2=O)c1 | inconclusive: 29.1 µM [rising, partial curve, poor fit] |  |
| COc1ccccc1C(=O)Nc1ccc2nc(SCC(=O)N(C)c3ccccc3)sc2c1 | inconclusive: 16.4 µM [cytotoxic, single point] |  |
| Cc1c(Cl)cccc1-c1ccc(CNCCSc2nnnn2-c2ccccc2)o1 |  | inactive: 14.3% |
| Cc1sc(NC(=O)CSc2ncn(-c3ccccc3)n2)nc1-c1ccccc1 | inconclusive: 18.4 µM [rising, single point] |  |
| CS(=O)(=O)c1ccc(C(=O)NCCN2C(=O)S/C(=C\c3cccnc3)C2=O)cc1[N+](=O)[O-] | inconclusive: 23.1 µM [cytotoxic, single point] |  |
| CCc1ccc(C(O)c2ncc(-c3cccc(C)c3)[nH]2)cc1 (stereo not drawn) |  | inactive: -0.022% |
| COC(=O)c1c[nH]n2c(=O)c(Cl)c(C)nc12 |  | inactive: -2.43% |
| CCOc1ccc2[nH]c(=O)c(CN(Cc3ccco3)C(=O)c3ccc(Br)cc3)cc2c1 | inconclusive: 20.6 µM [cytotoxic, single point] |  |
| COc1ccc(S(=O)(=O)N2CCOC2CNC(=O)C(=O)NCCc2c[nH]c3ccccc23)cc1 (stereo not drawn) |  | inconclusive: -0.278% |
| CC(C)Oc1cccc(C(=O)C2CCCN(C(=O)c3cc(C(F)(F)F)[nH]n3)C2)c1 (stereo not drawn) | inconclusive: 20.6 µM [cytotoxic, single point] |  |
| Cc1ccccc1/C=C/c1nc2ccccc2c(=O)[nH]1 | inconclusive: 29.1 µM [cytotoxic, single point] |  |
| O=C(COc1ccc2c(c1)OCO2)Nc1nccs1 | inconclusive: 18.4 µM [cytotoxic, single point] |  |
| CCO/C=C/C(O)(CNC(=O)c1ccc(C(C)(C)C)cc1)C(F)(F)F (stereo not drawn) |  | inconclusive: -34.2% [cytotoxic] |

Rewritten bar-delimited: 4 of the compounds above.
SMILES | Potency | activity change, negative = cytotoxic
CC(C)Oc1ccccc1-c1nc(SCC(=O)c2ccc(F)cc2)n[nH]1 |  | inactive: -6.78%
CC(C)NC(=O)[C@H](CSCc1ccccc1)N1Cc2ccccc2C1=O | inconclusive: 0.0146 µM [rising, full curve] | 
COc1ccc([N+](=O)[O-])cc1NC(=S)NC(NC(=O)C(c1ccccc1)c1ccccc1)C(Cl)(Cl)Cl (stereo not drawn) | inconclusive: 29.1 µM [cytotoxic, single point] | 
Cc1cc(Cl)ccc1N=c1ssnc1Cl | inconclusive: 23.1 µM [cytotoxic, single point] | 
